Taken from: PubChem BioAssay AID1259285 (Sanger Institute, 2017)

Test: 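Kinase knock-downs that reduce colorectal cancer cell viability or act with drugs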 (primary screen)
Cell system: human HCC56 colorectal cancer cells
Knock-down reagent: siRNA pool against human genes
Treatment: DMSO vehicle, or anchor drug BYL719 at 1 µM, cetuximab at 5 µg/ml, or trametinib at 10 nM
Detection: 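Replicate-averaged viability relative to non-targeting siRNA, expressed as a robust z-score from controls, plus a synergy score for each of three anchor drugs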
Reading the numbers: viability robust z-score, no drug: higher = more viable cells, weaker knock-down effect; viability vs non-targeting pool, no drug: higher = more viable cells; synergy score with BYL719: higher = stronger combined killing with BYL719
Rule for the call: 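Essential when the drug-free viability robust z-score falls below -3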
Meaning of the calls: active = essential without drug; inactive = no change without drug
The deposit covers 794 reagents; shown is an unselected part. In the full data, 20 (2.5%) are marked active. 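Calls rest on the drug-free arm alone and ignore synergy scores; viability ratios seem to be capped at 1.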 Entries without a mark were called inactive. Further read-outs or replicates are left out here. Not given: the amount of reagent, the time to read-out.

| gene symbol | viability robust z-score, no drug | viability vs non-targeting pool, no drug | synergy score with BYL719 |
| --- | --- | --- | --- |
| MAP4K1 (mitogen-activated protein kinase kinase kinase kinase 1) | -0.834 | 0.889 | 0.0584 |
| PAK6 (p21 (RAC1) activated kinase 6) | 0.458 | 1 | 0.262 |
| PRKAG3 (protein kinase AMP-activated non-catalytic subunit gamma 3) | -1.61 | 0.822 | 0.0461 |
| MAP3K4 (mitogen-activated protein kinase kinase kinase 4) | 0.458 | 1 | -0.14 |
| MYO3B (myosin IIIB) | 0.458 | 1 | -0.149 |
| CLSPN (claspin) | -2.8 | 0.72 | -0.111 |
| PRKG2 (protein kinase cGMP-dependent 2) | 0.458 | 1 | -0.133 |
| CDK13 (cyclin dependent kinase 13) | 0.458 | 1 | -0.0866 |
| CAMK1 (calcium/calmodulin dependent protein kinase I) | 0.458 | 1 | -0.0516 |
| VRK1 (VRK serine/threonine kinase 1) | 0.458 | 1 | -0.0372 |
| TCF12 (transcription factor 12) | 0.458 | 1 | -0.1 |
| CRIM1 (cysteine rich transmembrane BMP regulator 1) | 0.458 | 1 | -0.0571 |
| PTPRU (protein tyrosine phosphatase receptor type U) | 0.458 | 1 | -0.156 |
| PAK3 (p21 (RAC1) activated kinase 3) | 0.458 | 1 | 0.0464 |
| STK36 (serine/threonine kinase 36) | 0.458 | 1 | -0.0961 |
| PIK3R3 (phosphoinositide-3-kinase regulatory subunit 3) | 0.458 | 1 | -0.162 |
| SF3B1 (splicing factor 3b subunit 1) | -5.51 (active) | 0.487 | -0.0172 |
| CDC7 (cell division cycle 7) | -0.848 | 0.888 | 0.121 |
| MAP4K4 (mitogen-activated protein kinase kinase kinase kinase 4) | 0.458 | 1 | -0.162 |
| MYH10 (myosin heavy chain 10) | 0.215 | 0.979 | -0.0114 |
| STK4 (serine/threonine kinase 4) | 0.458 | 1 | -0.111 |
| MUSK (muscle associated receptor tyrosine kinase) | -1.65 | 0.819 | -0.0124 |
| EXOSC10 (exosome component 10) | 0.458 | 1 | -0.162 |
| ERN1 (endoplasmic reticulum to nucleus signaling 1) | -2.27 | 0.766 | 0.054 |
| ADPGK (ADP dependent glucokinase) | 0.353 | 0.991 | -0.0218 |
| FXR1 (FMR1 autosomal homolog 1) | 0.458 | 1 | -0.107 |
| MAP3K7 (mitogen-activated protein kinase kinase kinase 7) | 0.458 | 1 | -0.119 |
| PPP2R1A (protein phosphatase 2 scaffold subunit Aalpha) | 0.458 | 1 | -0.162 |
| MAPK14 (mitogen-activated protein kinase 14) | 0.458 | 1 | 0.0625 |
| RPS6KA2 (ribosomal protein S6 kinase A2) | -2.73 | 0.726 | -0.0768 |
| PSKH1 (protein serine kinase H1) | 0.458 | 1 | -0.162 |
| BRSK2 (BR serine/threonine kinase 2) | 0.458 | 1 | -0.0552 |
| PKN1 (protein kinase N1) | 0.458 | 1 | -0.137 |

Only “viability vs non-targeting pool, no drug”, for 7 of the entries above:
STK4 (serine/threonine kinase 4) = 1
MUSK (muscle associated receptor tyrosine kinase) = 0.819
EXOSC10 (exosome component 10) = 1
ERN1 (endoplasmic reticulum to nucleus signaling 1) = 0.766
ADPGK (ADP dependent glucokinase) = 0.991
FXR1 (FMR1 autosomal homolog 1) = 1
MAP3K7 (mitogen-activated protein kinase kinase kinase 7) = 1

Additional results follow.
| gene symbol | viability robust z-score, no drug | viability vs non-targeting pool, no drug | synergy score with BYL719 |
| --- | --- | --- | --- |
| WNK2 (WNK lysine deficient protein kinase 2) | 0.458 | 1 | -0.145 |
| LRRK1 (leucine rich repeat kinase 1) | 0.458 | 1 | -0.162 |
| CDKN1A (cyclin dependent kinase inhibitor 1A) | 0.458 | 1 | -0.0973 |
| BUB1B (BUB1 mitotic checkpoint serine/threonine kinase B) | -0.384 | 0.928 | 0.0157 |
| DGKA (diacylglycerol kinase alpha) | -0.728 | 0.898 | -0.0206 |
| MAST2 (microtubule associated serine/threonine kinase 2) | 0.458 | 1 | 0.0839 |
| TLK2 (tousled like kinase 2) | 0.458 | 1 | -0.0917 |
| MAST1 (microtubule associated serine/threonine kinase 1) | -0.723 | 0.899 | -0.161 |
| PDGFRA (platelet derived growth factor receptor alpha) | 0.458 | 1 | -0.0593 |
| MAPK6 (mitogen-activated protein kinase 6) | 0.458 | 1 | -0.102 |
| PACSIN1 (protein kinase C and casein kinase substrate in neurons 1) | 0.458 | 1 | -0.162 |
| MAP3K14 (mitogen-activated protein kinase kinase kinase 14) | -1.23 | 0.855 | 0.00432 |
| CLK4 (CDC like kinase 4) | 0.458 | 1 | -0.105 |
| DUSP21 (dual specificity phosphatase 21) | 0.458 | 1 | -0.0663 |
| PRKX (protein kinase cAMP-dependent X-linked catalytic subunit) | 0.458 | 1 | -0.162 |
| XYLB (xylulokinase) | 0.458 | 1 | -0.00345 |
| CPNE3 (copine 3) | 0.458 | 1 | -0.14 |
